Experimental data from patent US12679827B2, “Pyrimidine compounds and their pharmaceutical uses” (National Health Research Institutes, priority 2020, dated 2026).
Some entries share one result that the patent states for a list of compounds.

System: NCI-H446 xenografted tumor
Experiment: Inhibition of xenografted tumor growth, NCI-H446-xenografted tumorigenicity mouse model
Format: in vivo, mice
Settings: 100 mg/kg orally, FIG. 2A
Experimental: The efficacies of two compounds of Formula (I), i.e., compound 71 and compound 122, in inhibiting tumor growth were determined using a NCI-H446-xenografted tumorigenicity mouse model as below.
Male athymic nu/nu nude mice (BioLASCO, Taiwan) at age 6 wk were housed in sterile cages maintained under 12-h light/dark cycles with controlled temperature and humidity. The mice were inoculated s.c. with 1×10^6 NCI-H446 cells (ATCC® HTB-171) resuspended in saline mixed with 50% Metrigel Matrix (Corning, USA). The sizes of the xenografted tumors were measured by a digital caliper (GMC-190; Goldsun Electronics Co.) and calculated using the algorithm: tumor volume (mm^3)=length×(width)^2/2. Body weight and tumor size were measured at least twice a week.

SMILES	tumor size 6 weeks after the treatment stopped	tumor size after treatment (5-on-2-off, from about 250 mm^3, in 10 days)
CCC(=O)n1nc(C)cc1Nc1cc(N2CCN(CC)CC2)nc(N[C@H]2CCN(C(=O)c3ccc(Cl)cc3F)C2)n1 [Compound 71]	smaller than 50 mm^3	
COc1cc(Nc2ncc3c(n2)-c2ccc(Cl)cc2C(c2c(F)cccc2OC)=NC3)ccc1C(=O)O [MCLN8237, reference compound]		smaller than 50 mm^3
